The values that follow come from the supplement of paper PMC7877785.

± gives the uncertainty stated by the source. Many of these values have a large error.

A short description of this data set: self-splicing fitness, log relative to wild type (ln ratio); higher = more splicing; Tetrahymena group I intron in knt gene, E. coli kanamycin selection, DiMSum; sequences stand for … in CUCUCU…GGAGGGAAAAGUUAUCAGGCAUGCACCUGGUAGCUAGUCUUUAAACCAAUAGAUUGCAUCGGUUUAAAAGGCAAGACCGUCAAAUUGCGGGAAAGGGGUCAACAGCCGUUCAGUACCAAGUCUCAGGGGAAACUUUGAGAUGGCCUUGCAAAGGGUAUGGUAAUAAGCUGACGGACAUGGUCCUAACCACGCAGCCAAGUCCUAAGUCAACAGAUCUUCUGUUGAUAUGGAUGCAGUUCACAGACUAAAUGUCGGUCGGGGAAGAUGUAUUCUUCUCAUAAGAUAUAGUCGGACCUCUCCUUAAUGGGAGCUAGCGGAUGAAGUGAUGCAACACUGGAGCCGCUGGGAACUAAUUUGUAUGCGAAAGUAUAUUGAUUAGUUUUGGAGUACUCGUGGUCG
A digest of the protocol:
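DiMSum derived fitness as the error-weighted combination of fold changes across replicates, kanamycin versus no kanamycin, normalised to wild type. E. coli BL21(DE3) held the library, which randomised all eight P1ex-region intron nucleotides within the knt kanamycin-resistance gene on pET-22b(+). Six replicate transformations grew overnight at 37°C or 30°C on LB agar with or without 25 μg/mL kanamycin, also containing 100 μg/mL carbenicillin, 50 μM IPTG and 0.2% rhamnose, and pooled colonies were amplicon-sequenced on an Illumina HiSeq 2500.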

Consider CGUUAGCAAUAUUACGGCUC, for which the “self-splicing fitness (ln)” value is -1.75 ± 0.33 (30 °C) and 0.277 ± 0.22 (37 °C).
With CUGGAGCAAUAUUACGAUUC, the “self-splicing fitness (ln)” value (37 °C) is -2.39 ± 1.1.
On to UAGUAGCAAUAUUACGAUAU, for which the “self-splicing fitness (ln)” value runs as follows: (30 °C) -3.37 ± 0.77; (37 °C) -3.08 ± 0.74.
AUCCAGCAAUAUUACGCUCC: the “self-splicing fitness (ln)” value (30 °C) was -0.802 ± 0.12 and the “self-splicing fitness (ln)” value (37 °C) turned out to be 0.304 ± 0.2.
On the same counts, the results for CCUCAGCAAUAUUACGCCAC are -3.18 ± 0.36 and -2.12 ± 0.41.
Take GUGGAGCAAUAUUACGAGGG: the “self-splicing fitness (ln)” value (37 °C) was -3.17 ± 0.6.
In the case of UCCAAGCAAUAUUACGACCG, the “self-splicing fitness (ln)” value (30 °C) is -2.51 ± 0.56.
For the sequence CGUAAGCAAUAUUACGGUGG, the “self-splicing fitness (ln)” value is -1.48 ± 0.082 (30 °C) and -1.25 ± 0.11 (37 °C).
On the same counts, the results for CUGCAGCAAUAUUACGAUGG are -1.7 ± 0.08 and -1.18 ± 0.1.
On the same counts, the results for CGACAGCAAUAUUACGUAAA are -3.02 ± 0.15 and -2.28 ± 0.21.
For the sequence CUAGAGCAAUAUUACGGUAU, the “self-splicing fitness (ln)” value (30 °C) was -4.38 ± 0.72.
Turning to AAAUAGCAAUAUUACGGGGA, the “self-splicing fitness (ln)” value was -3.71 ± 0.25 (30 °C) and -2.86 ± 0.19 (37 °C).
Regarding ACAGAGCAAUAUUACGACCC, the “self-splicing fitness (ln)” value is, setting by setting: (30 °C) -3.57 ± 1; (37 °C) -1.64 ± 0.68.
In the same order, the values of CUCAAGCAAUAUUACGAAUA are -3.27 ± 0.64 and -2.74 ± 0.54.
In the same order, the values of UAAGAGCAAUAUUACGCUUU are -2.81 ± 0.18 and -1.85 ± 0.31.
Consider CGCGAGCAAUAUUACGCUCU, for which, where the note is “30 °C”, the “self-splicing fitness (ln)” value is -1.84 ± 0.58.
With GUCGAGCAAUAUUACGACGC, the “self-splicing fitness (ln)” value reads like this: (30 °C) -0.285 ± 0.68; (37 °C) -0.44 ± 0.71.
On to UACAAGCAAUAUUACGAGCC, for which, where the note is “37 °C”, the “self-splicing fitness (ln)” value was -1.46 ± 0.69.
Consider UAGCAGCAAUAUUACGUCUA, for which the “self-splicing fitness (ln)” value reads like this: (30 °C) -0.114 ± 0.073; (37 °C) 0.146 ± 0.084.
For the sequence AUAUAGCAAUAUUACGGCCU, the “self-splicing fitness (ln)” value (30 °C) is -0.457 ± 0.22 and the “self-splicing fitness (ln)” value (37 °C) was -1.58 ± 0.39.
Turning to UAGAAGCAAUAUUACGGGGG, for the setting “30 °C”, the “self-splicing fitness (ln)” value is -3.59 ± 0.6.
In the case of CGUGAGCAAUAUUACGCAAA, the “self-splicing fitness (ln)” value (30 °C) is -3.58 ± 0.74.
Consider CCGUAGCAAUAUUACGACCU, for which, for the setting “37 °C”, the “self-splicing fitness (ln)” value was determined as 0.354 ± 0.6.
Consider CGUUAGCAAUAUUACGCAAU, for which the “self-splicing fitness (ln)” value reads like this: (30 °C) -4.34 ± 0.72; (37 °C) -1.02 ± 0.23.
On the same counts, the results for CCUAAGCAAUAUUACGGACG are -1.15 ± 0.059 and -0.303 ± 0.08.
With UCUUAGCAAUAUUACGCGUC, the “self-splicing fitness (ln)” value (37 °C) was -3.94 ± 0.72.
Consider CCAGAGCAAUAUUACGGCAU, for which the “self-splicing fitness (ln)” value runs as follows: (30 °C) -3.94 ± 0.6; (37 °C) -2.9 ± 0.74.
For AUUGAGCAAUAUUACGUAUG, under “37 °C”, the “self-splicing fitness (ln)” value was -2.76 ± 0.74.
As to CCGCAGCAAUAUUACGUGGA, the “self-splicing fitness (ln)” value is, setting by setting: (30 °C) -3.51 ± 0.23; (37 °C) -2.43 ± 0.22.
Consider CAUUAGCAAUAUUACGCUAA, for which the “self-splicing fitness (ln)” value (37 °C) was -3.66 ± 0.6.
With GCACAGCAAUAUUACGCGUG, the “self-splicing fitness (ln)” value is, setting by setting: (30 °C) -3.87 ± 0.2; (37 °C) -2.35 ± 0.18.
In the same order, the values of GGCUAGCAAUAUUACGAGCC are -1.06 ± 0.54 and -0.785 ± 0.93.
In the same order, the values of UUAGAGCAAUAUUACGGGCC are -3.59 ± 0.75 and -2.92 ± 0.74.
For the sequence GUAGAGCAAUAUUACGUAGC, the “self-splicing fitness (ln)” value (37 °C) is -2.09 ± 0.6.
As for AAGGAGCAAUAUUACGGUUA, under “37 °C”, the “self-splicing fitness (ln)” value is -1.36 ± 0.63.
On to CCAUAGCAAUAUUACGCUGA, for which the “self-splicing fitness (ln)” value (30 °C) is -3.52 ± 0.41 and the “self-splicing fitness (ln)” value (37 °C) was -1.99 ± 0.28.
For the sequence UUGAAGCAAUAUUACGAGCG, the “self-splicing fitness (ln)” value is, setting by setting: (30 °C) -0.107 ± 0.089; (37 °C) 0.65 ± 0.14.
In the same order, the values of GCAUAGCAAUAUUACGGGUC are -3.17 ± 0.14 and -2.71 ± 0.17.
On the same counts, the results for AUACAGCAAUAUUACGAAUA are -2.51 ± 0.12 and -0.987 ± 0.11.
For the sequence GCGGAGCAAUAUUACGACCA, the “self-splicing fitness (ln)” value (30 °C) is -3.8 ± 0.6.
On to AAUGAGCAAUAUUACGAUAC, for which the “self-splicing fitness (ln)” value (30 °C) was -4 ± 0.33 and the “self-splicing fitness (ln)” value (37 °C) was -2.47 ± 0.61.
In the same order, the values of CGAGAGCAAUAUUACGGCCA are -1.08 ± 1 and -1.95 ± 0.79.
